From PubChem BioAssay AID2685 (National Center for Advancing Translational Sciences (NCATS), 2010) come the findings set out here.

Several values for one entry are separate records, joined by “and”; a condition that tells them apart may be missing. Identical values can stand only once. Some of the results follow. These are further read-outs of the screen, such as a control signal, another cell line or another target. No call is given for them. Compounds called inactive in the main read-out are mostly missing here. Words in brackets tell the shape of the fitted curve; partial curves, single points and poor fits give uncertain potencies.

A short description of this assay: qHTS Assay for Lipid Storage Modulators in Drosophila S3 Cells.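 As to cell number change: cells counted by Cell Tracker Red CMTPX staining in the red channel.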 The conditions noted are these: BODIPY lipid droplet fluorescence, 18-24 h; for cell number change: measured here: cell count max response, cells fed with added oleic acid. The essentials: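 Drosophila S3 cells got compounds at several concentrations plus oleic acid (400 uM solution). Laser-scanning cytometry with 488 nm excitation read lipid droplets at 500-530 nm and cells at 575-640 nm. Percent activity was relative to 20 uM Triacsin C.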

Setting [1] is: measured here: cell number channel AC50, cells fed with added oleic acid.
Setting [2] is: measured here: lipid fluorescence (Fed channel) AC50, cells fed with added oleic acid.

The AC50 is the midpoint of the concentration-response curve, whichever way the signal moves. A lower AC50 goes with greater potency. Consider `CCc1ccc(NC(=O)CN(c2cc(C)cc(C)c2)S(=O)(=O)c2c(C)[nH]c(=O)[nH]c2=O)cc1`, for which the cell number change is -33.3%. The AC50 under setting [1] was 29.1 µM [falling, single point].

As for `Cc1cc(=O)oc2ccc(OC(C)C(=O)O)cc12` (configuration not stated), the cell number change was -1.05%. Under setting [2], the half-maximal activity concentration (AC50) is 32.6 µM [falling, single point].

Regarding `c1ccc(CCNc2c3c(nc4ncnn24)CCC3)cc1`, the cell number change was -27.9%.

As to `Cc1ccsc1C(C(=O)NCc1ccccc1)N(C(=O)c1csnn1)c1ccccc1` (configuration not stated), the cell number change came out at 18.9%. The AC50 under setting [2] is 6.51 µM [falling, single point].

For the molecule `CCC(=O)NN1CCN(c2ccncc2S(=O)(=O)N2CCCCC2)CC1`, the cell number change is 15.5%. In addition, under setting [2], the AC50 is 5.8 µM [rising, single point].

As to `CC(NC(=O)CNC(=O)Cc1cccc2ccccc12)c1ccc(S(N)(=O)=O)cc1` (configuration not stated), the cell number change was 46.5%. Under setting [1], the AC50 is 7.31 µM [rising, partial curve, poor fit].

Consider `CC(C)CC(=O)N(c1nnc(-c2cccnc2)s1)C1CCCC1`, for which the cell number change is -14.6%. Under setting [2], the AC50 is 29.1 µM [falling, single point].

Consider `C=CCn1c(SCC(=O)Nc2ccc(NC(C)=O)cc2)nc2sc(C)c(C)c2c1=O`, for which the cell number change was -58.7%. Under setting [1], the AC50 was 32.6 µM [falling, partial curve]. The AC50 under setting [2] is 10.3 µM [falling, partial curve, poor fit].

Consider `N#Cc1ccccc1S(=O)(=O)N1CCN(CC(=O)Nc2ccccc2C(=O)NC2CC2)CC1`, for which the cell number change was -7.14%. For the same molecule, under setting [2], the AC50 is 0.0291 µM [falling, full curve, poor fit].

As to `O=C(Nc1ncc([N+](=O)[O-])s1)c1cccs1`, the cell number change is -61.3% and -1.74%. For the same molecule, under setting [1], the AC50 was 16.4 µM [falling, partial curve]. Besides, the AC50 under setting [2] is 29.1 µM [falling, single point] and 23.1 µM [falling, single point].

Take `CCN(c1cccc(C)c1)S(=O)(=O)c1cccc(C(=O)O)c1`: the cell number change is -100%. For the same molecule, the AC50 under setting [1] is 23.1 µM [falling, partial curve].

As for `Cc1ccc2[nH]c(C(=O)N3CCN(C=O)CC3)cc2c1`, the cell number change is -3.7%.

For the molecule `COc1cc([N+](=O)[O-])ccc1NC(=O)CSc1nc2ccccc2n1-c1ccccc1`, the cell number change worked out at 7.33%. Further, under setting [2], the AC50 was 8.2 µM [rising, partial curve].

With `Cc1ccc(C(=O)N[C@H](C(=O)NC2CCCCCCC2)C(C)C)cc1`, the cell number change came out at 4.47%. In addition, the AC50 under setting [2] was 1.84 µM [falling, partial curve].

Turning to `Cc1cccc(C(=O)N/N=C/c2ccc[nH]2)c1`, the cell number change was -5.35%. The AC50 under setting [1] was 0.651 µM [falling, full curve]. The AC50 under setting [2] is 0.651 µM [falling, partial curve, poor fit].

Regarding `COc1cc(C(=O)O[C@H]2CC(C)=CC[C@@]3(C)CC[C@@](O)(C(C)C)[C@H]23)ccc1O`, the cell number change was -27.9%. The concentration at half-maximal activity (AC50) under setting [2] is 10.3 µM [falling, partial curve].

`O=C1CCC(C(=O)OC(C(=O)c2c[nH]c3ccccc23)c2ccccc2)=NN1` (configuration not stated): the cell number change is -80.8%. Under setting [1], the AC50 is 32.6 µM [falling, partial curve, poor fit]. In addition, the AC50 under setting [2] was 4.11 µM [falling, partial curve].

As for `O=C(O)CCCN1C(=O)C2C3CCC(O3)C2C1=O` (configuration not stated), the cell number change is -9.81%. The concentration at half-maximal activity (AC50) under setting [2] is 0.82 µM [falling, single point].

Consider `CC1C(=O)Nc2ccccc2N1C(=O)c1ccccc1` (configuration not stated), for which the AC50 under setting [2] was 4.61 µM [rising, single point].

As to `Cc1ccc(CN(C)CCc2ccccn2)cc1`, the cell number change is 20.1%. In addition, the AC50 under setting [1] was 0.0291 µM [rising, full curve, poor fit]. Further, the concentration at half-maximal activity (AC50) under setting [2] is 3.26 µM [falling, full curve, poor fit].

In the case of `Cc1oc(-c2cccc(Cl)c2)nc1CS(=O)(=O)CC(=O)NC1CCCC1`, the cell number change came out at 10.4%.

As to `COc1ccc(NC(=O)/C(C#N)=C/c2ccc(OCCN3CCOCC3)c(OC)c2)c(OC)c1`, the cell number change is 13.1%. For the same molecule, the AC50 under setting [2] was 0.092 µM [rising, full curve, poor fit].

Turning to `CO/N=C(/CS(=O)Cc1ccccc1Cl)c1ccc(Cl)cc1Cl` (configuration not stated), the cell number change was -24.4%. The concentration at half-maximal activity (AC50) under setting [2] is 29.1 µM [falling, single point].

Consider `COc1ccc(NC(=O)CCNS(=O)(=O)c2ccc3c(c2)c(=O)n(C)c(=O)n3C)cc1`, for which the cell number change was -14.6%.

Consider `CCOc1cc(/C=C(\C#N)C(=O)NCC2CCCO2)ccc1OCC(N)=O` (configuration not stated), for which the cell number change was 2.77%. Besides, under setting [2], the AC50 was 7.31 µM [rising, single point].

For `CCOC(=O)C(NC(=O)CC)(N1CCc2ccccc2C1)C(F)(F)F` (configuration not stated), the cell number change was -9.57%. Moreover, under setting [1], the AC50 is 6.51 µM [falling, single point].

In the case of `CCCn1c(N)c(N(CCOC)C(=O)c2cc3c(s2)CCC(CC)C3)c(=O)[nH]c1=O` (configuration not stated), the cell number change is 16.8%. Further, under setting [2], the AC50 was 0.103 µM [falling, full curve, poor fit].

On to `CCn1c2ccccc2c2nnc(SCCCn3c(=O)[nH]c4ccccc43)nc21`, for which the cell number change is -7.93%. Moreover, the AC50 under setting [2] was 0.291 µM [rising, partial curve, poor fit].

As for `C/C(N)=C(/C#N)C(=O)CN1C(=O)NC(Cc2c[nH]c3ccccc23)C1=O` (configuration not stated), the cell number change is 18.2%. Further, the AC50 under setting [2] was 0.206 µM [rising, full curve, poor fit].

As to `O=C(O)c1ccc(-c2nc(-c3ccccc3)c(-c3ccccc3)[nH]2)cc1`, the cell number change was -6.61%. The concentration at half-maximal activity (AC50) under setting [2] was 18.4 µM [rising, partial curve].

Regarding `O=C(OCC(=O)N1CCOCC1)c1ccccc1OCc1ccccc1`, the cell number change is -6.22%. Moreover, the AC50 under setting [2] is 25.9 µM [rising, single point].

For the molecule `CCn1c(SCC(=O)Nc2ccc3c(c2)OCCO3)nnc1-c1cccnc1`, the AC50 under setting [2] was 0.082 µM [falling, partial curve, poor fit].

Consider `CCOc1ccccc1NC(=O)NC1(C(=O)NCC2CCCO2)CCCCC1` (configuration not stated), for which the cell number change is 14.5%. For the same molecule, under setting [2], the AC50 is 20.6 µM [rising, single point].

Regarding `Cc1ccc(OCC(=O)N/N=C/c2cn(C)c3ccccc23)cc1`, the cell number change is 5.66%. Besides, under setting [2], the AC50 was 3.66 µM [falling, single point].

For the molecule `CCn1c(CC(=O)Nc2ccccc2Cl)nnc1SCC(=O)NC1CCCC1`, the cell number change amounted to 7.89%.

As to `Cc1ccc(C(=O)/C=C/NNC(=O)c2ccccc2O)cc1`, the cell number change is -3.16%. Also, the AC50 under setting [2] was 29.1 µM [rising, single point].

In the case of `CCN=C1SC(C(N)=O)CC(=O)N1CC` (configuration not stated), the cell number change was -3.44%. Besides, under setting [2], the AC50 was 2.59 µM [falling, full curve, poor fit].

As to `O=C(Nc1nnc(S(=O)(=O)N2CCCCC2)s1)c1ccccc1Br`, the cell number change was determined as 13.3%. The AC50 under setting [2] was 3.66 µM [rising, full curve].

Turning to `CCn1cc(C2=NOC(C(=O)Nc3cc(C)nn3-c3ccccc3)C2)c(C)n1` (configuration not stated), the AC50 under setting [1] is 0.411 µM [rising, partial curve, poor fit] and the half-maximal activity concentration (AC50) under setting [2] is 0.461 µM [rising, full curve, poor fit].

`C#Cc1ccc(CN2CCC(C(=O)Nc3ccc(Oc4ccccc4)nc3)CC2)cc1`: the cell number change is -5.67%. The AC50 under setting [2] is 29.1 µM [falling, single point].

In the case of `Cc1ccc(NC(=O)[C@@H]2CCCN2C(=O)[C@@H]2Cc3ccccc3CN2)c(C)c1`, the cell number change is -1.61%. In addition, the AC50 under setting [2] was 16.4 µM [rising, single point].

For `C/C(N)=C(/C#N)C(=O)COC(=O)c1cc(-c2ccc(C)cc2)nc2ccccc12`, the cell number change was -11.3%. Moreover, the AC50 under setting [2] was 6.51 µM [rising, partial curve, poor fit].

With `CN(C(=O)CSc1nc(-c2ccc(F)cc2)cs1)C1CCS(=O)(=O)C1` (configuration not stated), the cell number change was -30.5%. Under setting [2], the AC50 is 0.0058 µM [falling, full curve, poor fit].

For `COc1ccc(NC(=O)CN(C)C(=O)COc2ccccc2Cc2ccccc2)cc1`, the cell number change was -11.5%. Moreover, under setting [2], the AC50 was 0.00651 µM [rising, full curve, poor fit].

Turning to `COCCNC(=O)/C(C#N)=C/C=C/c1ccccc1[N+](=O)[O-]`, the cell number change was -21.2%. For the same molecule, the AC50 under setting [1] was 0.00517 µM [rising, full curve, poor fit].

Consider `COc1ccc(C2C(C(C)=O)=C(C)Nc3ncnn32)cc1OC` (configuration not stated), for which the AC50 under setting [2] is 5.8 µM [falling, single point].

Regarding `Cc1ccc(-c2cc(C(=O)N/N=C/C=C/c3ccco3)c3ccccc3n2)cc1C`, the cell number change is -14.5%.

Turning to `CCOc1ccc(CN(C)C(=O)CCl)cc1`, the cell number change is -36.4%.

On to `COC(=O)CSc1nnc(NC(=O)C2CC(=O)N(c3ccc(F)cc3)C2)s1` (configuration not stated), for which the cell number change is -6.94%.

In the case of `COCCn1c(C)cc(O)c(C(=O)Nc2cccc(Cl)c2)c1=O`, the cell number change was -16.2%. In addition, the concentration at half-maximal activity (AC50) under setting [2] is 2.91 µM [falling, full curve].

As to `O=C1OC(c2ccccc2)=C/C1=C/N1CCOCC1`, the cell number change was -16.7%. Besides, the AC50 under setting [2] is 29.1 µM [rising, single point].

Regarding `Cc1ccc(S(=O)(=O)N2CCN(C(=O)COC(=O)CCOc3ccccc3C)CC2)cc1`, the cell number change came to 2.61%. The AC50 under setting [2] was 9.2 µM [falling, partial curve, poor fit].

Consider `COc1ccc(NC(=O)c2ccc([N+](=O)[O-])o2)cc1`, for which the cell number change was -54.4%. The AC50 under setting [1] is 29.1 µM [falling, single point]. Further, the AC50 under setting [2] is 0.291 µM [falling, partial curve, poor fit].

On to `CN(C)c1cccc(C(=O)NCc2ccccc2)c1`, for which the cell number change turned out to be 46.9%. The AC50 under setting [2] was 6.51 µM [rising, partial curve, poor fit].

Take `COC(=O)c1coc(-c2ccc(C)cc2)c1C(=O)OC`: the cell number change came out at 74.1%. Further, under setting [1], the AC50 is 20.6 µM [rising, partial curve].

On to `COc1ccc(OCCN2CCN(C(=O)c3ccc(OC)c(OC)c3)CC2)cc1`, for which the cell number change is -12.4%.

Consider `CC(C)Oc1cccc(C(=O)C2CCCN(C(=O)c3cc(C4CC4)[nH]n3)C2)c1` (configuration not stated), for which the AC50 under setting [2] is 4.11 µM [rising, partial curve].

With `Cc1cccc(NC(=O)Cc2ccc(F)cc2)c1`, the cell number change was -2.5%. Further, the AC50 under setting [2] was 13 µM [rising, partial curve].

As to `O=C(Nc1ccc([N+](=O)[O-])cc1)c1cncc(Br)c1`, the cell number change is -9.19%.

In the case of `O=C(/C=C/c1ccccc1)NC(NC(=S)Nc1ccc(C(=O)O)cc1)C(Cl)(Cl)Cl` (configuration not stated), the cell number change is -3.69%. Also, the AC50 under setting [2] was 0.13 µM [falling, full curve, poor fit].
